Results published in publication PMC12376529.
No constants are given. Whether binding was seen depends on the method and setting. Binding seen in cells or lysates may run through a third protein. Some binding calls cover weakened binding; strength is not graded here.

Chains of the proteins cited; added tags and fusions are not shown.
UniProt O94901: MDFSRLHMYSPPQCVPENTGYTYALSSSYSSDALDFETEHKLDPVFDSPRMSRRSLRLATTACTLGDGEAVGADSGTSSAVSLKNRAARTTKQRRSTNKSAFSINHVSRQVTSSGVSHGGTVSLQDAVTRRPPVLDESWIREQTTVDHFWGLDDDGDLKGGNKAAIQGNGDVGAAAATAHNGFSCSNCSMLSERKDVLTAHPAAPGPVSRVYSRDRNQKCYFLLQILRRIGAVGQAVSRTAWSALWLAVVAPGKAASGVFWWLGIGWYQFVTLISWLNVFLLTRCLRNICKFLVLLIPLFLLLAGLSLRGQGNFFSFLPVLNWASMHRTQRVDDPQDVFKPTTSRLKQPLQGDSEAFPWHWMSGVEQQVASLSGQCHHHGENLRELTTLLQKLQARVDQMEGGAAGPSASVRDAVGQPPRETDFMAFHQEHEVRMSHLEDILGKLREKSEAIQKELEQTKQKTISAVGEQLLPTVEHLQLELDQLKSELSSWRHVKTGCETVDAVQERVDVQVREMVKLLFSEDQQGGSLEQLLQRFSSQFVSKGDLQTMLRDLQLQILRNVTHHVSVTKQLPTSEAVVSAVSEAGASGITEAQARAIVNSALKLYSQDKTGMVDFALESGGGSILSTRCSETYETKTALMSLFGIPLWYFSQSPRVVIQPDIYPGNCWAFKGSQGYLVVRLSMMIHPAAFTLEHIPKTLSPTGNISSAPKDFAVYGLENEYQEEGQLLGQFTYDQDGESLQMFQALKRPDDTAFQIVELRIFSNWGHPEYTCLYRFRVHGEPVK

Target: nesprin 2 (human (endogenous in HeLa)) (UniProt Q8WXH0)
Assay: proximity ligation; in situ Duolink PLA on fixed (4% paraformaldehyde), permeabilised (0.1% Triton X-100) progerin Tet-On HeLa cells, before and after doxycycline; anti-SUN1 with anti-Lamin A/C or anti-Nesprin 2; number and total intensity of dots per nucleus

SUN1 (from UniProt O94901 1-785) was tested, and the binding was “binds”.
